Laboratory results: publication PMC12069340 (Frontiers in Cellular and Infection Microbiology, 2025)
Structures can show the parent of a compound that is named as a salt.

Tests used:
in vitro = conditions: human, Relative Viability (%)
U937 cells = conditions: 20 µM

| Compound | viability at 20 µM (in vitro) | Relative Viability (%) (U937 cells) |
| --- | --- | --- |
| COc1cc2c(cc1OC)C(=O)C(CC1CCN(Cc3ccccc3)CC1)C2 (centres unmarked) [Donepezil HCl] | 99% | – |
| CN1c2ccccc2C(NCCCCCCC(=O)[O-])c2ccc(Cl)cc2S1(=O)=O.[Na+] (centres unmarked) [Tianeptine sodium] | – | 120.3 |
